Test results published in publication PMC11251085.
Results are given in words; binding and its absence hold for the method and conditions named. In cells and extracts the contact can be indirect. Some results given as binding are weak or reduced against the parent protein; the word gives no strength.

By UniProt entry, the sequences of proteins in these tests, tags left out.
UniProt Q99873: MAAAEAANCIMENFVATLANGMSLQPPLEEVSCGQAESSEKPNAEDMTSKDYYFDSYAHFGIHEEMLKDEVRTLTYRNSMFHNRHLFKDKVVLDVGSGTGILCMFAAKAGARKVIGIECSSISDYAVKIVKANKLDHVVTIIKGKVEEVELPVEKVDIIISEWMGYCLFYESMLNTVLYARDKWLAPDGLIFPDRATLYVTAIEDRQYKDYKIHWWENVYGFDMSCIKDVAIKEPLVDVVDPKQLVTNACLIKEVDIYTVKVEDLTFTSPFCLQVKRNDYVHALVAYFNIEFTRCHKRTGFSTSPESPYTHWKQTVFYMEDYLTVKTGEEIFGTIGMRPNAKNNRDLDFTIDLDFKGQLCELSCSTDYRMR
UniProt Q93009: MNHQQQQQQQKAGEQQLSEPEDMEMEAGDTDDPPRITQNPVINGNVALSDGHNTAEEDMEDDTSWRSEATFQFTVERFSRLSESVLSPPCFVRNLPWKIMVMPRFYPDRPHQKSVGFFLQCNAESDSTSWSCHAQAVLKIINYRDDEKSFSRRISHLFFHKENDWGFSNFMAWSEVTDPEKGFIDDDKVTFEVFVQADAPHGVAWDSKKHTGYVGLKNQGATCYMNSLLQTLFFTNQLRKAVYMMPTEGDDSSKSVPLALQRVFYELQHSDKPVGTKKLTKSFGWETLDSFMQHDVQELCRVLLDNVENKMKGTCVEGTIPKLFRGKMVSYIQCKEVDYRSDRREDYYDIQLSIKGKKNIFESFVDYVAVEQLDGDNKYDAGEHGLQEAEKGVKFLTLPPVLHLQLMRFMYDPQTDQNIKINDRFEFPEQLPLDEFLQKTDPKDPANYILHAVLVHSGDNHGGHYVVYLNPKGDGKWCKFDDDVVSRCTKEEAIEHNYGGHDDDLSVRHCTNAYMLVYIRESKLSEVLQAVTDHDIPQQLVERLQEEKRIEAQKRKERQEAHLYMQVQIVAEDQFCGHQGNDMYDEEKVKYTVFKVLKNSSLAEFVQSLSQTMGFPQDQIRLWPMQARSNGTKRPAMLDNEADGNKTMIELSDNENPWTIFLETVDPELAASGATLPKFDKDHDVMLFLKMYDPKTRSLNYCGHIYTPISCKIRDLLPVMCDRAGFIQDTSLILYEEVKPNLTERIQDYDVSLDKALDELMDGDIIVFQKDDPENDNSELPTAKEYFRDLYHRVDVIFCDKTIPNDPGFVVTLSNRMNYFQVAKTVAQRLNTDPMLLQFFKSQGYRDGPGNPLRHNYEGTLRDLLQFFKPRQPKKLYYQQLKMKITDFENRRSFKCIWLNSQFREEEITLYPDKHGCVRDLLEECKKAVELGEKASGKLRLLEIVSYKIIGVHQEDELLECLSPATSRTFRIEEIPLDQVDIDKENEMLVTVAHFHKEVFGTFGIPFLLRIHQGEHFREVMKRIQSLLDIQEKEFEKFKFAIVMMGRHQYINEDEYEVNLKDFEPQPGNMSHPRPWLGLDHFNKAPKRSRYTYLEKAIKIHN

Tests used:
[1] = target: His-PRMT1 (UniProt Q99873); assay: co-IP; HEK-293T cells transfected with Flag-USP7 and His-PRMT1; lysates in buffer A (25 mM Tris-HCl pH 8.0, 10 mM NaCl, 0.5 mM EDTA, 0.5% NP-40) precipitated with anti-Flag or anti-His antibodies and Protein A/G magnetic beads at 4 °C; western blot
[2] = target: Flag-USP7 (UniProt Q93009); assay: as above

binding [1]	binding [2]	Substance
binds		Flag-USP7 (from UniProt Q93009 1-1102) (enzyme)
	binds	His-PRMT1 (from UniProt Q99873 1-371) (enzyme)
